Reference: patent US20250283871A1, “COMPOSITIONS AND METHODS FOR MODULATING THE INTERACTION BETWEEN SS18-SSX FUSION ONCOPROTEIN AND NUCLEOSOMES” (Dana-Farber Cancer Institute, Inc., priority 2020, published 2025)

System: BAF complex subunits and histone proteins
Assay: Mass spectrometry proteomics of purified HA-SS18 WT and HA-SS18-SSX1 complexes (Tables 5A-5E)
Set-up: species or system human
Details: HEK-293T
[1] = HA-SS18SSX1 purification, NE (soluble nuclear extract) fraction, peptides per identified protein
[2] = HA-SS18WT_NE_peptides: HA-SS18 WT complexes purified from nuclear extract (NE), label = protein identified (Gene Symbol)
[3] = HA-SS18SSX1_NE_peptides (Table 5B), HA-SS18-SSX1 BAF complex purification from soluble nuclear extract
[4] = HA-SS18WT_NE_peptides: proteins co-purified with HA-SS18 WT from nuclear extract (NE)

B1: CCDC47 (protein, UniProt Q96A33 21-483, looked up)
PAT complex subunit CCDC47: KFDDFEDEEDIVEYDDNDFAEFEDVMEDSVTESPQRVIITEDDEDETTVELEGQDENQEGDFEDADTQEGDTESEPYDDEEFEGYEDKPDTSSSKNKDPITIVDVPAHLQNSWESYYLEILMVTGLLAYIMNYIIGKNKNSRLAQAWFNTHRELLESNFTLVGDDGTNKEATSTGKLNQENEHIYNLWCSGRVCCEGMLIQLRFLKRQDLLNVLARMMRPVSDQVQIKVTMNDEDMDTYVFAVGTRKALVRLQKEMQDLSEFCSDKPKSGAKYGLPDSLAILSEMGEVTDGMMDTKMVHFLTHYADKIESVHFSDQFSGPKIMQEEGQPLKLPDTKRTLLFTFNVPGSGNTYPKDMEALLPLMNMVIYSIDKAKKFRLNREGKQKADKNRARVEENFLKLTHVQRQEAAQSRREEKKRAEKERIMNEEDPEKQRRLEEAALRREQKKLEKKQMKMKQIKVKAM
B1 was tested, and the “Total (total peptides)” value [1] was 13, the “Unique (unique peptides)” value [1] was 11 and the “Total (peptides)” value [2] was 12. The “Unique (peptides)” value [2] was 12.

B2: SURF4 (protein, UniProt O15260 2-269, looked up)
Surfeit locus protein 4: GQNDLMGTAEDFADQFLRVTKQYLPHVARLCLISTFLEDGIRMWFQWSEQRDYIDTTWNCGYLLASSFVFLNLLGQLTGCVLVLSRNFVQYACFGLFGIIALQTIAYSILWDLKFLMRNLALGGGLLLLLAESRSEGKSMFAGVPTMRESSPKQYMQLGGRVLLVLMFMTLLHFDASFFSIVQNIVGTALMILVAIGFKTKLAALTLVVWLFAINVYFNAFWTIPVYKPMHDFLKYDFFQTMSVIGGLLLVVALGPGGVSMDEKKKEW
For B2, the “Total (peptides)” value [3] was 1 and the “Unique (peptides)” value [3] was 1.

B3: SPATA5 (protein, UniProt Q8NB90 1-893, looked up)
ATPase family gene 2 protein …: MSSKKNRKRLNQSAENGSSLPSAASSCAEARAPSAGSDFAATSGTLTVTNLLEKVDDKIPKTFQNSLIHLGLNTMKSANICIGRPVLLTSLNGKQEVYTAWPMAGFPGGKVGLSEMAQKNVGVRPGDAIQVQPLVGAVLQAEEMDVALSDKDMEINEEELTGCILRKLDGKIVLPGNFLYCTFYGRPYKLQVLRVKGADGMILGGPQSDSDTDAQRMAFEQSSMETSSLELSLQLSQLDLEDTQIPTSRSTPYKPIDDRITNKASDVLLDVTQSPGDGSGLMLEEVTGLKCNFESAREGNEQLTEEERLLKFSIGAKCNTDTFYFISSTTRVNFTEIDKNSKEQDNQFKVTYDMIGGLSSQLKAIREIIELPLKQPELFKSYGIPAPRGVLLYGPPGTGKTMIARAVANEVGAYVSVINGPEIISKFYGETEAKLRQIFAEATLRHPSIIFIDELDALCPKREGAQNEVEKRVVASLLTLMDGIGSEVSEGQVLVLGATNRPHALDAALRRPGRFDKEIEIGVPNAQDRLDILQKLLRRVPHLLTEAELLQLANSAHGYVGADLKVLCNEAGLCALRRILKKQPNLPDVKVAGLVKITLKDFLQAMNDIRPSAMREIAIDVPNVSWSDIGGLESIKLKLEQAVEWPLKHPESFIRMGIQPPKGVLLYGPPGCSKTMIAKALANESGLNFLAIKGPELMNKYVGESERAVRETFRKARAVAPSIIFFDELDALAVERGSSLGAGNVADRVLAQLLTEMDGIEQLKDVTILAATNRPDRIDKALMRPGRIDRIIYVPLPDAATRREIFKLQFHSMPVSNEVDLDELILQTDAYSGAEIVAVCREAALLALEEDIQANLIMKRHFTQALSTVTPRIPESLRRFYEDYQEKSGLHTL
For B3, the “Total (peptides)” value [3] was 1, the “Unique (peptides)” value [3] was 1 and the “Total (peptides)” value [4] was 1. The “Unique (peptides)” value [4] was 1.

B4: DLAT (protein, UniProt P10515 87-647, looked up)
Dihydrolipoyllysine-residue …: SLPPHQKVPLPSLSPTMQAGTIARWEKKEGDKINEGDLIAEVETDKATVGFESLEECYMAKILVAEGTRDVPIGAIICITVGKPEDIEAFKNYTLDSSAAPTPQAAPAPTPAATASPPTPSAQAPGSSYPPHMQVLLPALSPTMTMGTVQRWEKKVGEKLSEGDLLAEIETDKATIGFEVQEEGYLAKILVPEGTRDVPLGTPLCIIVEKEADISAFADYRPTEVTDLKPQVPPPTPPPVAAVPPTPQPLAPTPSAPCPATPAGPKGRVFVSPLAKKLAVEKGIDLTQVKGTGPDGRITKKDIDSFVPSKVAPAPAAVVPPTGPGMAPVPTGVFTDIPISNIRRVIAQRLMQSKQTIPHYYLSIDVNMGEVLLVRKELNKILEGRSKISVNDFIIKASALACLKVPEANSSWMDTVIRQNHVVDVSVAVSTPAGLITPIVFNAHIKGVETIANDVVSLATKAREGKLQPHEFQGGTFTISNLGMFGIKNFSAIINPPQACILAIGASEDKLVPADNEKGFDVASMMSVTLSCDHRVVDGAVGAQWLAEFRKYLEKPITMLL
B4 was tested, and the “Total (peptides)” value [3] was 1 and the “Unique (peptides)” value [3] was 1.

B5: LPCAT4 (protein, UniProt Q643R3 1-524, looked up)
Lysophospholipid …: MSQGSPGDWAPLDPTPGPPASPNPFVHELHLSRLQRVKFCLLGALLAPIRVLLAFIVLFLLWPFAWLQVAGLSEEQLQEPITGWRKTVCHNGVLGLSRLLFFLLGFLRIRVRGQRASRLQAPVLVAAPHSTFFDPIVLLPCDLPKVVSRAENLSVPVIGALLRFNQAILVSRHDPASRRRVVEEVRRRATSGGKWPQVLFFPEGTCSNKKALLKFKPGAFIAGVPVQPVLIRYPNSLDTTSWAWRGPGVLKVLWLTASQPCSIVDVEFLPVYHPSPEESRDPTLYANNVQRVMAQALGIPATECEFVGSLPVIVVGRLKVALEPQLWELGKVLRKAGLSAGYVDAGAEPGRSRMISQEEFARQLQLSDPQTVAGAFGYFQQDTKGLVDFRDVALALAALDGGRSLEELTRLAFELFAEEQAEGPNRLLYKDGFSTILHLLLGSPHPAATALHAELCQAGSSQGLSLCQFQNFSLHDPLYGKLFSTYLRPPHTSRGTSQTPNASSPGNPTALANGTVQAPKQKGD
B5 was tested, and the “Total (peptides)” value [3] was 1 and the “Unique (peptides)” value [3] was 1.

B6: CEPT1 (protein, UniProt Q9Y6K0 1-416, looked up)
Choline/ethanolaminephosphotra …: MSGHRSTRKRCGDSHPESPVGFGHMSTTGCVLNKLFQLPTPPLSRHQLKRLEEHRYQSAGRSLLEPLMQGYWEWLVRRVPSWIAPNLITIIGLSINICTTILLVFYCPTATEQAPLWAYIACACGLFIYQSLDAIDGKQARRTNSSSPLGELFDHGCDSLSTVFVVLGTCIAVQLGTNPDWMFFCCFAGTFMFYCAHWQTYVSGTLRFGIIDVTEVQIFIIIMHLLAVIGGPPFWQSMIPVLNIQMKIFPALCTVAGTIFSCTNYFRVIFTGGVGKNGSTIAGTSVLSPFLHIGSVITLAAMIYKKSAVQLFEKHPCLYILTFGFVSAKITNKLVVAHMTKSEMHLHDTAFIGPALLFLDQYFNSFIDEYIVLWIALVFSFFDLIRYCVSVCNQIASHLHIHVFRIKVSTAHSNHH
In the case of B6, the “Total (peptides)” value [3] is reported as 1 and the “Unique (peptides)” value [3] is reported as 1.

B7: TCP11L2 (protein, UniProt Q8N4U5 1-519, looked up)
T-complex protein 11-like …: MPFNGEKQCVGEDQPSDSDSSRFSESMASLSDYECSRQSFASDSSSKSSSPASTSPPRVVTFDEVMATARNLSNLTLAHEIAVNENFQLKQEALPEKSLAGRVKHIVHQAFWDVLDSELNADPPEFEHAIKLFEEIREILLSFLTPGGNRLRNQICEVLDTDLIRQQAEHSAVDIQGLANYVISTMGKLCAPVRDNDIRELKATGNIVEVLRQIFHVLDLMQMDMANFTIMSLRPHLQRQLVEYERTKFQEILEETPSALDQTTEWIKESVNEELFSLSESALTPGAENTSKPSLSPTLVLNNSYLKLLQWDYQKKELPETLMTDGARLQELTEKLNQLKIIACLSLITNNMVGAITGGLPELASRLTRISAVLLEGMNKETFNLKEVLNSIGIQTCVEVNKTLMERGLPTLNAEIQANLIGQFSSIEEEDNPIWSLIDKRIKLYMRRLLCLPSPQKCMPPMPGGLAVIQQELEALGSQYANIVNLNKQVYGPFYANILRKLLFNEEAMGKVDASPPTN
B7 was tested, and the “Total (peptides)” value [3] was 1, the “Unique (peptides)” value [3] was 1 and the “Total (peptides)” value [4] was 1. The “Unique (peptides)” value [4] was 1.

B8: SLC25A33 (protein, UniProt Q9BSK2 1-321, looked up)
Solute carrier family 25 …: MATGGQQKENTLLHLFAGGCGGTVGAIFTCPLEVIKTRLQSSRLALRTVYYPQVHLGTISGAGMVRPTSVTPGLFQVLKSILEKEGPKSLFRGLGPNLVGVAPSRAVYFACYSKAKEQFNGIFVPNSNIVHIFSAGSAAFITNSLMNPIWMVKTRMQLEQKVRGSKQMNTLQCARYVYQTEGIRGFYRGLTASYAGISETIICFAIYESLKKYLKEAPLASSANGTEKNSTSFFGLMAAAALSKGCASCIAYPHEVIRTRLREEGTKYKSFVQTARLVFREEGYLAFYRGLFAQLIRQIPNTAIVLSTYELIVYLLEDRTQ
B8 was tested, and the “Total (peptides)” value [3] was 1 and the “Unique (peptides)” value [3] was 1.

B9: DNA2 (protein, UniProt P51530 1-1060, looked up)
DNA replication ATP-dependent …: MEQLNELELLMEKSFWEEAELPAELFQKKVVASFPRTVLSTGMDNRYLVLAVNTVQNKEGNCEKRLVITASQSLENKELCILRNDWCSVPVEPGDIIHLEGDCTSDTWIIDKDFGYLILYPDMLISGTSIASSIRCMRRAVLSETFRSSDPATRQMLIGTVLHEVFQKAINNSFAPEKLQELAFQTIQEIRHLKEMYRLNLSQDEIKQEVEDYLPSFCKWAGDFMHKNTSTDFPQMQLSLPSDNSKDNSTCNIEVVKPMDIEESIWSPRFGLKGKIDVTVGVKIHRGYKTKYKIMPLELKTGKESNSIEHRSQVVLYTLLSQERRADPEAGLLLYLKTGQMYPVPANHLDKRELLKLRNQMAFSLFHRISKSATRQKTQLASLPQIIEEEKTCKYCSQIGNCALYSRAVEQQMDCSSVPIVMLPKIEEETQHLKQTHLEYFSLWCLMLTLESQSKDNKKNHQNIWLMPASEMEKSGSCIGNLIRMEHVKIVCDGQYLHNFQCKHGAIPVTNLMAGDRVIVSGEERSLFALSRGYVKEINMTTVTCLLDRNLSVLPESTLFRLDQEEKNCDIDTPLGNLSKLMENTFVSKKLRDLIIDFREPQFISYLSSVLPHDAKDTVACILKGLNKPQRQAMKKVLLSKDYTLIVGMPGTGKTTTICTLVRILYACGFSVLLTSYTHSAVDNILLKLAKFKIGFLRLGQIQKVHPAIQQFTEQEICRSKSIKSLALLEELYNSQLIVATTCMGINHPIFSRKIFDFCIVDEASQISQPICLGPLFFSRRFVLVGDHQQLPPLVLNREARALGMSESLFKRLEQNKSAVVQLTVQYRMNSKIMSLSNKLTYEGKLECGSDKVANAVINLRHFKDVKLELEFYADYSDNPWLMGVFEPNNPVCFLNTDKVPAPEQVEKGGVSNVTEAKLIVFLTSIFVKAGCSPSDIGIIAPYRQQLKIINDLLARSIGMVEVNTVDKYQGRDKSIVLVSFVRSNKDGTVGELLKDWRRLNVAITRAKHKLILLGCVPSLNCYPPLEKLLNHLNSEKLIIDLPSREHESLCHILGDFQRE
For B9, the “Total (peptides)” value [3] was 1 and the “Unique (peptides)” value [3] was 1.
